Patent US5565425A, “Viral infection and proliferation inhibitors” (Snow Brand Milk Products Co., Ltd, priority 1993, dated 1996)
Not every detail of the peptide structures is certain; ends, links or a residue may be inferred. Bridge positions count the residues as written; N and C are the ends. Peptide text beside a SMILES is read from it.

Legend:
[1] = system: influenza virus A/PR/8/34; conditions: 100 μl of one mg/ml solution in allantoic cavity three hours before virus; average of five eggs
[2] = system: HIV (HTLV-IIIB); assay: Inhibitory activity against HIV infection and proliferation in MT-4 cells (indirect fluorescence antibody method); assay type: cell-based, human immunodeficiency virus (HIV); conditions: three days, positive control 26.0%
Method: (Method) Cultured supernatant of MOLT-4/HTLV-IIIB cells, a HTLV-IIIB persistent infected strain of HIV, was used as a viral solution. The supernatant was kept at -80° C. Human T cell line MT-4 was used for the test. MT-4 was subcultured in RPMI 1640 medium containing 10% fetal calf serum (FCS). Sample, LF derived peptide, was dissolved in RPMI 1640 medium and one ml of the diluted solution at various concentrations was added to the cells. The inoculated MT-4 test sample was incubated for 60 minutes and infected with HIV at a concentration of moi […]=0.01 and one ml of the cell solution adjusted at a cell density of 3×10^5 cells/ml was added. The cells were cultured for three days : and HIV infected cells were determined with an indirect fluorescence antibody method.
HIV infected cells were determined by the indirect fluorescence antibody method using HIV infected patient serum as a primary antibody. […] HIV infected MT-4 cells cultured without addition of the sample was used as a positive control and cells without addition of viral solution was cultured to make a negative control group.

SMILES	Inhibitory rate of infection and proliferation of influenza virus [1] [%]	ratio of stained (HIV infected) cells ([2]; sample 63 μg/ml) [%]	ratio of stained (HIV infected) cells ([2]; sample 125 μg/ml) [%]	ratio of stained (HIV infected) cells ([2]; sample 250 μg/ml) [%]	ratio of stained (HIV infected) cells ([2]; sample 500 μg/ml) [%]	ratio of stained (HIV infected) cells ([2]; sample 1,000 μg/ml) [%]
CSCC[C@@H]1NC(=O)[C@H](CC(N)=O)NC(=O)[C@H](CCCNC(=N)N)NC(=O)[C@H](CCC(N)=O)NC(=O)[C@H](Cc2c[nH]c3ccccc23)NC(=O)[C@H](CCC(N)=O)NC(=O)[C@H](Cc2ccccc2)NC(=O)[C@@H](N)CSSC[C@@H](C(=O)O)NC(=O)[C@H](CO)NC(=O)[C@H](C(C)C)NC(=O)[C@@H]2CCCN2C(=O)[C@@H]2CCCN2C(=O)CNC(=O)[C@H](CCCNC(=N)N)NC(=O)[C@H](C(C)C)NC(=O)[C@H](CCCCN)NC(=O)[C@H](CCCNC(=N)N)NC1=O [Human LF (20-37), Cys-Phe-Gln-Trp-Gln-Arg-Asn-Met-Arg-Lys-Val-Arg-Gly-Pro-Pro-Val-Ser-Cys] (H-CFQWQRNMRKVRGPPVSC-OH; disulfide 1-18)	75.0	19	10.9	8.9	6.0	4.4
CC[C@H](C)[C@@H]1NC(=O)[C@H](CO)NC(=O)[C@@H]2CCCN2C(=O)[C@H](C)NC(=O)CNC(=O)[C@H](CC(C)C)NC(=O)[C@H](CCCCN)NC(=O)[C@H](CCCCN)NC(=O)[C@H](CCSC)NC(=O)[C@H](CCCNC(=N)N)NC(=O)[C@H](Cc2c[nH]c3ccccc23)NC(=O)[C@H](CCC(N)=O)NC(=O)[C@H](Cc2c[nH]c3ccccc23)NC(=O)[C@H](CCCNC(=N)N)NC(=O)[C@H](CCCNC(=N)N)NC(=O)[C@@H](N)CSSC[C@@H](C(=O)O)NC(=O)[C@H]([C@@H](C)O)NC1=O [Bovine LF (19-36), Cys-Arg-Arg-Trp-Gln-Trp-Arg-Met-Lys-Lys-Leu-Gly-Ala-Pro-Ser-Ile-Thr-Cys] (H-CRRWQWRMKKLGAPSITC-OH; disulfide 1-18)	50.0	20	9.9	8.9	5.9	4.8
